Test results: paper PMC5778506
Results are given in words; binding and its absence hold for the method and conditions named. Binding seen in cells or lysates may run through a third protein. These calls come from enrichment with a bait or labelling near it, and not all partners need be listed.

Chains of the proteins cited; added tags and fusions are not shown.
UniProt O75152: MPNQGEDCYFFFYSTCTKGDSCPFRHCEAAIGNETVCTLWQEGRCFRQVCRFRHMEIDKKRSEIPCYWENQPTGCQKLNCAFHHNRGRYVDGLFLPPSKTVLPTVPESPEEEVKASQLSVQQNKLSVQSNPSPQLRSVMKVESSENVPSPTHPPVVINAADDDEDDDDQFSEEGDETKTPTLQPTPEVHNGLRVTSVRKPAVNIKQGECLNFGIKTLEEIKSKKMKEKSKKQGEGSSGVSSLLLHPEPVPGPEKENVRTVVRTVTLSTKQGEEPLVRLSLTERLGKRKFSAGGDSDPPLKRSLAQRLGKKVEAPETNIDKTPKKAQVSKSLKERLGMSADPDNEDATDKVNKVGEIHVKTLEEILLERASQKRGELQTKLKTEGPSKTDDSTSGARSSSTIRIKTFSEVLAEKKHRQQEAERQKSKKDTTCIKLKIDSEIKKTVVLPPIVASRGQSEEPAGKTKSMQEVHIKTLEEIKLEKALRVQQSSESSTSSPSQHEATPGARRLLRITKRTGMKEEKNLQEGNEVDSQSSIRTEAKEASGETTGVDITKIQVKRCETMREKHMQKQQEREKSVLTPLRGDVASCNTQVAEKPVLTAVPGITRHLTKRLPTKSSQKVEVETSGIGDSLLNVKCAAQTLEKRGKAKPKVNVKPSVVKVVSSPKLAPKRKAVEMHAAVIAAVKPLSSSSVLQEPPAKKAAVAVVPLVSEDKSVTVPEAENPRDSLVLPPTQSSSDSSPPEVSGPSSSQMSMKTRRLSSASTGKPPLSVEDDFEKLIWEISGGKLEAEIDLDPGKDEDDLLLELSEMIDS
UniProt Q6NZY4: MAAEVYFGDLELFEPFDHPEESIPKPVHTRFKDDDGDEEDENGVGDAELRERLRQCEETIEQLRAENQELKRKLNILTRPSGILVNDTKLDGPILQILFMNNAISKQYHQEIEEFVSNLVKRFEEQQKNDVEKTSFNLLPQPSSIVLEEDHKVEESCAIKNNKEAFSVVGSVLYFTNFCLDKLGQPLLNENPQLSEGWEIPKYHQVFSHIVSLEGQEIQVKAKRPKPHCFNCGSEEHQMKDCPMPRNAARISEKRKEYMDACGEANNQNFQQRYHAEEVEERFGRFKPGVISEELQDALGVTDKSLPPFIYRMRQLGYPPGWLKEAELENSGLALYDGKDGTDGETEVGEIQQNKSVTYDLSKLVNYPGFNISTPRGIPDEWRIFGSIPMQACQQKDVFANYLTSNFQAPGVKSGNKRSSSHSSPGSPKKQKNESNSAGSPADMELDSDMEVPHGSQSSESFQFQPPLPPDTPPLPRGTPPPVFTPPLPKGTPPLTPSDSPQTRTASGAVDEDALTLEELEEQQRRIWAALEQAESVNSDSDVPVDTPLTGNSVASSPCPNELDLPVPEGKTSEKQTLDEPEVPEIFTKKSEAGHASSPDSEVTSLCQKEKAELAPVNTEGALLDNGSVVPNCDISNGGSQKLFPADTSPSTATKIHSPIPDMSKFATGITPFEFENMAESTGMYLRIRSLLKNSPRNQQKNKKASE
UniProt P11940: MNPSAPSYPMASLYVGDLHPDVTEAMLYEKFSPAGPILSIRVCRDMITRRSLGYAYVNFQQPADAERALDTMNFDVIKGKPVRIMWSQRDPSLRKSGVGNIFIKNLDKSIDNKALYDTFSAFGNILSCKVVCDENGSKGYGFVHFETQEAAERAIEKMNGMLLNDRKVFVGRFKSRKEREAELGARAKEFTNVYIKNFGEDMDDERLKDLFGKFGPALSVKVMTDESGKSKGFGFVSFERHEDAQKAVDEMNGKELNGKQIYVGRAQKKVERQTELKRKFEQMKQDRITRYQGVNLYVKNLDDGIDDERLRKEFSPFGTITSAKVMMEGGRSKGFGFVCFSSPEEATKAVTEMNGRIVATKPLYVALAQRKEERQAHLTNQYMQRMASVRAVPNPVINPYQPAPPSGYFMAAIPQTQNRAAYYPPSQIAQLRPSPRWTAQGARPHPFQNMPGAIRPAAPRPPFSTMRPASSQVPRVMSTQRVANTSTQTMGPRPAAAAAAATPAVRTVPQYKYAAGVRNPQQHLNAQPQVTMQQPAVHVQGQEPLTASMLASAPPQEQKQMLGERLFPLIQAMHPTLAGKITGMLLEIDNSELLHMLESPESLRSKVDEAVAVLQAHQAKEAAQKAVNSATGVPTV

T1: nuclear poly(A)-binding protein 1 (total PABPN1) (human (endogenous in U2-OS)) (UniProt Q86U42)
T1 sequence: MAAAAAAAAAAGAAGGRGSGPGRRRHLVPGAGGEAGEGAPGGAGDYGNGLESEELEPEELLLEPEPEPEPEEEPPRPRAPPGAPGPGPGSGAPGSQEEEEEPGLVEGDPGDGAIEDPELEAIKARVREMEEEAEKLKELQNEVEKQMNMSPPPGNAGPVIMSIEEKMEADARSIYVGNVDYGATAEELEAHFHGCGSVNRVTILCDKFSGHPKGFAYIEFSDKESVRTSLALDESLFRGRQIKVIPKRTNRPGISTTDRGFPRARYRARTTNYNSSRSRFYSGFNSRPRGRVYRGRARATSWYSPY

T2: phospho-PABPN1 (nuclear poly(A)-binding protein 1 phosphorylated on Ser95) (human (endogenous in U2-OS)) (UniProt Q86U42)
T2 sequence (chain, phosphoserine at 95): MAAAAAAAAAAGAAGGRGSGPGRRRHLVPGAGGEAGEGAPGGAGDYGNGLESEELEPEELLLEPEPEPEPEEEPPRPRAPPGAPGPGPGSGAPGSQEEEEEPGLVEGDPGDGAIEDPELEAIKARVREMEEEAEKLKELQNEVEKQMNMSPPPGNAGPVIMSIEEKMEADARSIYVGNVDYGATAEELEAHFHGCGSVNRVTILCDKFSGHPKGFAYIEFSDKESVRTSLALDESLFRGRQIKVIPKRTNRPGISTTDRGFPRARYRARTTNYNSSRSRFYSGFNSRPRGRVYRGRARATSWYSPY

T3: nuclear poly(A)-binding protein 1 (total PABPN1) (human (endogenous in U2-OS)), Q86U42
T3 chain: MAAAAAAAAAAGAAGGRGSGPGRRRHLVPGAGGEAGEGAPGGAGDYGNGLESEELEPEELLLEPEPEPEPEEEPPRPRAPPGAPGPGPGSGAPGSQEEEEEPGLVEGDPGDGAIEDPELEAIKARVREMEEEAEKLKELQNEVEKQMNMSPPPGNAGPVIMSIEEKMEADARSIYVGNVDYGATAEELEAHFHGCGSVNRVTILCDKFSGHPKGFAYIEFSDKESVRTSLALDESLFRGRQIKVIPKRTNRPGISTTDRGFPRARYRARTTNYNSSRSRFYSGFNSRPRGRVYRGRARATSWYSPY

T4: phospho-PABPN1 (nuclear poly(A)-binding protein 1 phosphorylated on Ser95) (human (endogenous in U2-OS)), Q86U42
T4 chain: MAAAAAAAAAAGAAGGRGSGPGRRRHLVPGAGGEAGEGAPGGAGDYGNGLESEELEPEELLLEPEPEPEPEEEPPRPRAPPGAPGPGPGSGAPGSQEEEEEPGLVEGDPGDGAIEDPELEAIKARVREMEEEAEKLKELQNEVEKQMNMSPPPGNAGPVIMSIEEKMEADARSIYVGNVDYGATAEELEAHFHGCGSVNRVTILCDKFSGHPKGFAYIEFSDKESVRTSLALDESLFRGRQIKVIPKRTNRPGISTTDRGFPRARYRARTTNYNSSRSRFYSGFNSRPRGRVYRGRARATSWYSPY


Tests used:
Assay in all cases: affinity purification with mass spectrometry; immunoprecipitation of endogenous pPABPN1 (anti-pS95 antibody) or total PABPN1 from U2-OS lysates (1% NP-40, 150 mM NaCl, 50 mM Tris-HCl pH 7.5, 1 mM MgCl2, 1% Benzonase), protein-A sepharose; cells treated with 50 ng/ml NCS for 30 min (total PABPN1: untreated cells too); siPABPN1 cells as control; hits >2-fold in at least two of three replicates
[1] = biological target: T1, nuclear poly(A)-binding protein 1 (total PABPN1) (human (endogenous in U2-OS))
[2] = biological target: T2, phospho-PABPN1 (nuclear poly(A)-binding protein 1 phosphorylated on Ser95) (human (endogenous in U2-OS))
[3] = biological target: T3, nuclear poly(A)-binding protein 1 …; conditions: remark: other sources report otherwise
[4] = biological target: T4, phospho-PABPN1 (nuclear poly(A)-binding …); conditions: remark: other sources report otherwise

Row | binding [1] | binding [2] | binding [3] | binding [4] | Molecule
1 | binds | binds | – | – | Zinc Finger CCCH-Type Containing 11A (from UniProt O75152 1-810)
2 | binds | binds | – | – | Zinc Finger CCHC-Type Containing 8 (from UniProt Q6NZY4 1-707)
3 | binds | binds | – | – | Poly(A) Binding Protein Cytoplasmic 1 (from UniProt P11940 1-636)

The next lines start with the molecule.

Row | Molecule | binding [1] | binding [2] | binding [3] | binding [4]
4 | Ski2 Like RNA Helicase 2, P42285 1-1042 (protein, here or on the partner: phosphoserine at 95) MADAFGDELFSVFEGDSTTAAGTKKDKEKDKGKWKGPPGSADKAGKRFDGKLQSESTNNGKNKRDVDFEGTDEPIFGKKPRIEESITEDLSLADLMPRVKVQSVETVEGCTHEVALPAEEDYLPLKPRVGKAAKEYPFILDAFQREAIQCVDNNQSVLVSAHTSAGKTVCAEYAIALALREKQRVIFTSPIKALSNQKYREMYEEFQDVGLMTGDVTINPTASCLVMTTEILRSMLYRGSEVMREVAWVIFDEIHYMRDSERGVVWEETIILLPDNVHYVFLSATIPNARQFAEWICHLHKQPCHVIYTDYRPTPLQHYIFPAGGDGLHLVVDENGDFREDNFNTAMQVLRDAGDLAKGDQKGRKGGTKGPSNVFKIVKMIMERNFQPVIIFSFSKKDCEAYALQMTKLDFNTDEEKKMVEEVFSNAIDCLSDEDKKLPQVEHVLPLLKRGIGIHHGGLLPILKETIEILFSEGLIKALFATETFAMGINMPARTVLFTNARKFDGKDFRWISSGEYIQMSGRAGRRGMDDRGIVILMVDEKMSPTIGKQLLKGSADPLNSAFHLTYNMVLNLLRVEEINPEYMLEKSFYQFQHYRAIPGVVEKVKNSEEQYNKIVIPNEESVVIYYKIRQQLAKLGKEIEEYIHKPKYCLPFLQPGRLVKVKNEGDDFGWGVVVNFSKKSNVKPNSGELDPLYVVEVLLRCSKESLKNSATEAAKPAKPDEKGEMQVVPVLVHLLSAISSVRLYIPKDLRPVDNRQSVLKSIQEVQKRFPDGIPLLDPIDDMGIQDQGLKKVIQKVEAFEHRMYSHPLHNDPNLETVYTLCEKKAQIAIDIKSAKRELKKARTVLQMDELKCRKRVLRRLGFATSSDVIEMKGRVACEISSADELLLTEMMFNGLFNDLSAEQATALLSCFVFQENSSEMPKLTEQLAGPLRQMQECAKRIAKVSAEAKLEIDEETYLSSFKPHLMDVVYTWATGATFAHICKMTDVFEGSIIRCMRRLEELLRQMCQAAKAIGNTELENKFAEGITKIKRDIVFAASLYL | – | – | binds | binds
5 | Zinc Finger CCCH-Type Containing 3 (protein, UniProt Q8IXZ2 1-948) MEEKEILRRQIRLLQGLIDDYKTLHGNAPAPGTPAASGWQPPTYHSGRAFSARYPRPSRRGYSSHHGPSWRKKYSLVNRPPGPSDPPADHAVRPLHGARGGQPPVPQQHVLERQVQLSQGQNVVIKVKPPSKSGSASASGAQRGSLEEFEETPWSDQRPREGEGEPPRGQLQPSRPTRARGTCSVEDPLLVCQKEPGKPRMVKSVGSVGDSPREPRRTVSESVIAVKASFPSSALPPRTGVALGRKLGSHSVASCAPQLLGDRRVDAGHTDQPVPSGSVGGPARPASGPRQAREASLVVTCRTNKFRKNNYKWVAASSKSPRVARRALSPRVAAENVCKASAGMANKVEKPQLIADPEPKPRKPATSSKPGSAPSKYKWKASSPSASSSSSFRWQSEASSKDHASQLSPVLSRSPSGDRPAVGHSGLKPLSGETPLSAYKVKSRTKIIRRRSSTSLPGDKKSGTSPAATAKSHLSLRRRQALRGKSSPVLKKTPNKGLVQVTTHRLCRLPPSRAHLPTKEASSLHAVRTAPTSKVIKTRYRIVKKTPASPLSAPPFPLSLPSWRARRLSLSRSLVLNRLRPVASGGGKAQPGSPWWRSKGYRCIGGVLYKVSANKLSKTSGQPSDAGSRPLLRTGRLDPAGSCSRSLASRAVQRSLAIIRQARQRREKRKEYCMYYNRFGRCNRGERCPYIHDPEKVAVCTRFVRGTCKKTDGTCPFSHHVSKEKMPVCSYFLKGICSNSNCPYSHVYVSRKAEVCSDFLKGYCPLGAKCKKKHTLLCPDFARRGACPRGAQCQLLHRTQKRHSRRAATSPAPGPSDATARSRVSASHGPRKPSASQRPTRQTPSSAALTAAAVAAPPHCPGGSASPSSSKASSSSSSSSSPPASLDHEAPSLQEAALAAACSNRLCKLPSFISLQSSPSPGAQPRVRAPRAPLTKDSGKPLHIKPRL | binds | binds | – | –
6 | Zinc Finger CCCH-Type Containing 14 (protein, UniProt Q6PJT7 1-736) MEIGTEISRKIRSAIKGKLQELGAYVDEELPDYIMVMVANKKSQDQMTEDLSLFLGNNTIRFTVWLHGVLDKLRSVTTEPSSLKSSDTNIFDSNVPSNKSNFSRGDERRHEAAVPPLAIPSARPEKRDSRVSTSSQESKTTNVRQTYDDGAATRLMSTVKPLREPAPSEDVIDIKPEPDDLIDEDLNFVQENPLSQKKPTVTLTYGSSRPSIEIYRPPASRNADSGVHLNRLQFQQQQNSIHAAKQLDMQSSWVYETGRLCEPEVLNSLEETYSPFFRNNSEKMSMEDENFRKRKLPVVSSVVKVKKFNHDGEEEEEDDDYGSRTGSISSSVSVPAKPERRPSLPPSKQANKNLILKAISEAQESVTKTTNYSTVPQKQTLPVAPRTRTSQEELLAEVVQGQSRTPRISPPIKEEETKGDSVEKNQGTQQRQLLSRLQIDPVMAETLQMSQDYYDMESMVHADTRSFILKKPKLSEEVVVAPNQESGMKTADSLRVLSGHLMQTRDLVQPDKPASPKFIVTLDGVPSPPGYMSDQEEDMCFEGMKPVNQTAASNKGLRGLLHPQQLHLLSRQLEDPNGSFSNAEMSELSVAQKPEKLLERCKYWPACKNGDECAYHHPISPCKAFPNCKFAEKCLFVHPNCKYDAKCTKPDCPFTHVSRRIPVLSPKPAVAPPAPPSSSQLCRYFPACKKMECPFYHPKHCRFNTQCTRPDCTFYHPTINVPPRHALKWIRPQTSE | binds | binds | – | –
